Experimental data taken from paper PMC10323626.
No constants are given. Whether binding was seen depends on the method and setting. In cells and extracts the contact can be indirect. Some entries that bind do so weakly or less than the wild type.

Sequences of proteins named here, by UniProt entry; tags and fusion partners are left off.
UniProt P63158: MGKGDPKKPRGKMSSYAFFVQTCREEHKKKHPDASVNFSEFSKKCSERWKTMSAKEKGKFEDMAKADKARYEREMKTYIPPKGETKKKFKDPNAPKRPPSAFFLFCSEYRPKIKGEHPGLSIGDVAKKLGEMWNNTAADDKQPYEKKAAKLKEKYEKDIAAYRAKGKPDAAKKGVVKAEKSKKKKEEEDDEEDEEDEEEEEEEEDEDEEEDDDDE

Molecular target: T1, Toll-like receptor 9 (TLR9) (mouse (endogenous in C57BL/6 TDSCs)) (UniProt Q9EQU3)
T1 sequence: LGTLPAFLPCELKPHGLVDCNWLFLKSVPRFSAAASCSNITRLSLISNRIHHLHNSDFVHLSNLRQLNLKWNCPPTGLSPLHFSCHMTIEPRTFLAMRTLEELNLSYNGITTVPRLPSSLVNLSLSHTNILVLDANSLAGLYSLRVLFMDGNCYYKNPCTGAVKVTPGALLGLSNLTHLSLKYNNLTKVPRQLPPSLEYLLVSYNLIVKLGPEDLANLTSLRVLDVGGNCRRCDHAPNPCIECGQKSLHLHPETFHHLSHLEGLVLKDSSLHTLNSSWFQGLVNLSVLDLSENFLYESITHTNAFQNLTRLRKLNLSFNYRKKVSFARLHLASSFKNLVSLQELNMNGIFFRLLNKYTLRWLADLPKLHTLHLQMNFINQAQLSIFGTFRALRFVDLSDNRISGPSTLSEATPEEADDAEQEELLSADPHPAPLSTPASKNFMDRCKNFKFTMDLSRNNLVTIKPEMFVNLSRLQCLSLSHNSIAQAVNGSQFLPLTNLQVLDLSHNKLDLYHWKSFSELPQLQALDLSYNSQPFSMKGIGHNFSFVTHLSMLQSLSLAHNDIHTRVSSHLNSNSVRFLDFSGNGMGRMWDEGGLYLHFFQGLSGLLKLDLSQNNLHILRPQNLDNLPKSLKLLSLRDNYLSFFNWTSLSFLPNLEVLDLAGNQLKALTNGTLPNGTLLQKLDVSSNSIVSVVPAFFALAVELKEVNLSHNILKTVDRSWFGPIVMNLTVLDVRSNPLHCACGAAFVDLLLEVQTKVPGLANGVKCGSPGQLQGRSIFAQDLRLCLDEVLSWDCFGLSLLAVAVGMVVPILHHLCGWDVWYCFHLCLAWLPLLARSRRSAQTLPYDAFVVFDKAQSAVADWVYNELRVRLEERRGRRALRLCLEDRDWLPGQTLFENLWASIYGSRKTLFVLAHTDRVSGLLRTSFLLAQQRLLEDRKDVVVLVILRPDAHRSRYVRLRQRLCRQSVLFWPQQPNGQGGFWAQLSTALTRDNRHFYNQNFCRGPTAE
Experiment: co-IP; lysate of TDSCs (IP Lysis/Wash buffer) after treatment with Mϕ-EVs, pyroMϕ-EVs, OV-EVs, KD-EVs or inhibpyroMϕ-EVs; anti-HMGB1, anti-TLR9 or normal rabbit IgG coupled to magnetic beads (Pierce Direct Magnetic IP/Co-IP kit), 4 °C overnight; Western blot

binding: binds
Substance: high mobility group protein 1 (HMGB1) (from UniProt P63158 1-215)
